From PubChem BioAssay AID248 (DTP/NCI, 2004)
The list does not hold the whole screen: it is rich in T/C values a quarter to a half above the control, in often repeated tests (any T/C) and in doses without a T/C. Further doses and runs are listed elsewhere. T/C gives the treated animals as a percentage of the vehicle group. Some entries give survivors of the animals treated and no T/C: the source files T/C as zero there, which appears to mark a toxic dose or a test without result, not a measured value. Some doses without a T/C left all or most animals alive at the check, yet need not have been tolerated: the source hardly ever lists a survival T/C far under the control, and the zero likely stands for such cases as well. Survivors were counted at the toxicity check, usually on the fifth day, unless a day is given; later deaths do not show. Schedule codes are those of the source, read here as Q, the interval in days (D) or hours (H), X, the number of doses. Some entries were tested several times; their values stand side by side, smallest first.

System: L1210 leukemia ip in BDF1 mice, survival T/C
Assay: NCI In Vivo Anticancer Drug Screen. Data for tumor model L1210 Leukemia (intraperitoneal) in B6D2F1 (BDF1) mice
Settings: T/C endpoint: mean survival time, higher T/C = longer survival
[1] = dose: 100.0 mg/kg/injection, schedule: Q01DX009 (ip), vehicle: saline
[2] = dose: 200.0 mg/kg/injection, schedule: Q01DX009 (ip), vehicle: saline
[3] = dose: 50.0 mg/kg/injection, schedule: Q01DX009 (ip), vehicle: saline
[4] = dose: 100.0 mg/kg/injection, schedule: Q04DX003 (ip), vehicle: saline
[5] = dose: 200.0 mg/kg/injection, schedule: Q01DX001 (ip), vehicle: saline
[6] = dose: 400.0 mg/kg/injection, schedule: Q01DX001 (ip), vehicle: saline
[7] = dose: 50.0 mg/kg/injection, schedule: Q04DX003 (ip), vehicle: saline with Tween-80
[8] = dose: 200.0 mg/kg/injection, schedule: Q01DX009 (ip), vehicle: saline with Tween-80
[9] = dose: 200.0 mg/kg/injection, schedule: Q04DX003 (ip), vehicle: saline with Tween-80
[10] = dose: 400.0 mg/kg/injection, schedule: Q04DX003 (ip), vehicle: saline with Tween-80

CC(=O)c1ccc2cc(O)ccc2c1 was tested, and the survivor count [1] was 3 of 6, the survivor count [2] was 2 of 6 and the survivor count (dose: 400.0 mg/kg/injection, schedule: Q01DX009 (ip), vehicle: saline) was 1 of 6.
For NC(=O)CCC(N)C(=O)O (stereo not drawn), the survivor count (dose: 12.5 mg/kg/injection, schedule: Q01DX009 (ip), vehicle: saline) was 3 of 3, the survivor count (dose: 25.0 mg/kg/injection, schedule: Q01DX009 (ip), vehicle: saline) was 3 of 3 and the survivor count [3] was 0 of 3. For the same compound, the survivor count [1] was 0 of 3 and the survivor count [2] was 0 of 3.
N#CCCCCCl was tested, and the survivor count (dose: 50.0 mg/kg/injection, schedule: Q04DX003 (ip), vehicle: saline) was 3 of 6, the survivor count [4] was 4 of 6 and the survivor count (dose: 200.0 mg/kg/injection, schedule: Q04DX003 (ip), vehicle: saline) was 0 of 6. The survivor count (dose: 400.0 mg/kg/injection, schedule: Q04DX003 (ip), vehicle: saline) was 0 of 6.
With CN1CCC(CN2c3ccccc3Sc3ccccc32)C1 (stereo not drawn) the survivor count [3] was 4 of 6.
CC(C)CCC1(c2ccccc2)C(=O)NC(=O)NC1=O was tested, and the survivor count [5] was 0 of 6 and the survivor count [6] was 0 of 6.
With C=CCNCCN1CCN(CCCN2c3ccccc3Sc3ccc(C(F)(F)F)cc32)CC1 the survivor count [3] was 4 of 6 and the survivor count [4] was 1 of 6.
With CC(C)C1(C(=O)N2CCCCC2=O)SCCCS1 the survivor count [7] was 6 of 6.
O=C(O)c1c(F)c(F)c(Oc2c(F)c(F)c(F)c(Oc3c(F)c(F)c(C(=O)O)c(F)c3F)c2F)c(F)c1F was tested, and the survivor count (dose: 400.0 mg/kg/injection, schedule: Q01DX009 (ip), vehicle: Klucel (hydroxypropylcellulose) (HPC)) was 0 of 6 and the survivor count (dose: 400.0 mg/kg/injection, schedule: Q04DX003 (ip), vehicle: Klucel (hydroxypropylcellulose) (HPC)) was 6 of 6.
In the case of CC(C)=NNC(=O)c1ccccc1, the survivor count (dose: 25.0 mg/kg/injection, schedule: Q04DX003 (ip), vehicle: saline with Tween-80) is reported as 6 of 6, the survivor count [8] is reported as 0 of 6 and the survivor count [9] is reported as 5 of 6. The survivor count [10] was 0 of 6.
In the case of Cc1cc(C)c[n+](Cc2ccccc2Cl)c1, the survivor count (dose: 50.0 mg/kg/injection, schedule: Q01DX001 (ip), vehicle: saline) is reported as 0 of 6, the survivor count (dose: 100.0 mg/kg/injection, schedule: Q01DX001 (ip), vehicle: saline) is reported as 1 of 6 and the survivor count [5] is reported as 0 of 6. For the same compound, the survivor count [6] was 0 of 6.
With O=[N+]([O-])c1ccc(S(=O)CCCl)c([N+](=O)[O-])c1 (stereo not drawn) the survivor count [7] was 5 of 6, the survivor count (dose: 100.0 mg/kg/injection, schedule: Q04DX003 (ip), vehicle: saline with Tween-80) was 1 of 6 and 5 of 6 and the survivor count [9] was 0 of 6. For the same compound, the survivor count [10] was 0 of 6.
With O=C(O)CCC1(c2ccccc2)CCCC1=O (stereo not drawn) the survivor count (dose: 200.0 mg/kg/injection, schedule: Q01DX009 (ip), vehicle: water) was 1 of 6.
In the case of C#CCSP(=O)(O)O, the survivor count (dose: 100.0 mg/kg/injection, schedule: Q01DX009 (ip), vehicle: saline with Tween-80) is reported as 3 of 3 and 6 of 6, the survivor count [8] is reported as 6 of 6 and the survivor count (dose: 400.0 mg/kg/injection, schedule: Q01DX009 (ip), vehicle: saline with Tween-80) is reported as 0 of 6.
With O=C1C(O)=C(c2ccc(Br)cc2)C(=O)C(O)=C1c1ccc(Br)cc1 the survivor count (dose: 150.0 mg/kg/injection, schedule: Q01DX001 (ip), vehicle: other) was 6 of 6 and the survivor count (dose: 300.0 mg/kg/injection, schedule: Q01DX001 (ip), vehicle: other) was 0 of 6.
